# Where a name gives a salt, the structure may show the parent alone. The list shows a part of the results. Most values lie at the level of the controls, where differences are scatter.
# Test system: hPSC-derived cortical neurons (WA09)
# Assay: KCl-induced FOS+/EGR-1+ double-positive nuclei fraction z-score (KCl minus unstimulated); higher = stronger activity-induced IEG response
# Settings: 5 µM; treatment: days 7-14 after plating, readout day 21
row,Structure (SMILES),KCl-induced FOS+/EGR-1+ double-positive nuclei fraction z-score
1,CNC[C@H](O)[C@@H](O)[C@H](O)[C@H](O)CO [Meglumine],0.642
2,NNc1nncc2ccccc12 [Hydralazine HCl],-0.512
3,C[C@@H](N)[C@H]1CC[C@H](C(=O)Nc2ccncc2)CC1,0.0481
4,CNC(=O)c1cc(Oc2ccc(NC(=O)Nc3ccc(Cl)c(C(F)(F)F)c3)cc2)ccn1 [Sorafenib],-0.0926
5,O=S(=O)(O)CCSSCCS(=O)(=O)O [Dimesna],0.213
6,CCOC(=O)C1=C(C)NC(C)=C(C(=O)OCC)C1c1ccccc1/C=C/C(=O)OC(C)(C)C [Lacidipine],-0.0559
7,CC(=O)c1cc([N+](=O)[O-])c(Sc2ccc(F)cc2F)s1,-0.0241
8,CS(=O)(=O)c1ccc([C@@H](O)[C@@H](CF)NC(=O)C(Cl)Cl)cc1 [Florfenicol],2.45
9,COC(=O)[C@H](c1ccccc1Cl)N1CCc2sccc2C1 [Clopidogrel],-0.335
10,COc1ccnc(C[S+]([O-])c2nc3cc(OC(F)F)ccc3[nH]2)c1OC (stereo not given) [Pantoprazole sodium],0.0597
11,CCOC(=O)c1ncn2c1CN(C)C(=O)c1cc(F)ccc1-2 [Flumazenil],1.09
12,COCC(=O)NC/C=C/c1ccc2ncnc(Nc3ccc(Oc4ccc(C)nc4)c(C)c3)c2c1,0.517
13,CN(C)[C@@H]1C(O)=C(C(N)=O)C(=O)[C@@]2(O)C(O)=C3C(=O)c4c(O)cccc4[C@@](C)(O)[C@H]3C[C@@H]12 [Tetracycline HCl],1.9
14,Cc1cc(C)nc(NS(=O)(=O)c2ccc(N)cc2)n1 [Sulfamethazine],-1.61
15,CC(C)C[C@H](NC(=O)[C@H]1O[C@@H]1C(=O)O)C(=O)NCCCCN=C(N)N,-0.947
16,O=C(/C=C/c1ccc(CN(CCO)CCc2c[nH]c3ccccc23)cc1)NO [LAQ824 (Dacinostat)],-0.399
17,Nc1cc(C(F)(F)F)c(-c2cc(N3CCOCC3)nc(N3CCOCC3)n2)cn1 [BKM120 (NVP-BKM120_ Buparlisib)],-0.73
18,COc1cc(F)c(F)c(Nc2ccc(I)cc2F)c1NS(=O)(=O)C1(C[C@H](O)CO)CC1 [Refametinib (RDEA119_ Bay 86-9766)],-1.05
19,CC[C@H]1OC(=O)[C@H](C)[C@@H](O[C@H]2C[C@@](C)(OC)[C@@H](O)[C@H](C)O2)[C@H](C)[C@@H](O[C@@H]2O[C@H](C)C[C@H](N(C)C)[C@H]2O)[C@](C)(OC)C[C@@H](C)C(=O)[C@H](C)[C@@H](O)[C@]1(C)O [Clarithromycin],2.66
20,Nc1nc(N)c(N=O)c(OCC2CCCCC2)n1,0.498

# As a working copy, part of the list above:
row,Structure (SMILES),KCl-induced FOS+/EGR-1+ double-positive nuclei fraction z-score
18,COc1cc(F)c(F)c(Nc2ccc(I)cc2F)c1NS(=O)(=O)C1(C[C@H](O)CO)CC1 [Refametinib (RDEA119_ Bay 86-9766)],-1.05
19,CC[C@H]1OC(=O)[C@H](C)[C@@H](O[C@H]2C[C@@](C)(OC)[C@@H](O)[C@H](C)O2)[C@H](C)[C@@H](O[C@@H]2O[C@H](C)C[C@H](N(C)C)[C@H]2O)[C@](C)(OC)C[C@@H](C)C(=O)[C@H](C)[C@@H](O)[C@]1(C)O [Clarithromycin],2.66

# More records:

row,Structure (SMILES),KCl-induced FOS+/EGR-1+ double-positive nuclei fraction z-score
1,COCCOc1nc(-c2ccc(Cl)c(Cl)c2)n(-c2ccc(NC(=O)CCl)cc2)n1 [MI-2 (MALT1 inhibitor)],1.29
2,CC(=O)Oc1cc2c(s1)CCN(C(C(=O)C1CC1)c1ccccc1F)C2 (stereo not given) [Prasugrel Hydrochloride],0.33
3,C[N+]1(C)CCC(=C(c2ccccc2)c2ccccc2)CC1 [Diphemanil Methylsulfate],0.549
4,FC(F)(F)C(Cl)Br (stereo not given) [Halothane],-0.345
5,CC(C)(CCCCCC(O)CCCCCC(C)(C)C(=O)O)C(=O)O,0.568
6,COC(=O)Nc1nc2cc(C(=O)c3ccc(F)cc3)ccc2[nH]1 [Flubendazole],-0.464
7,CC1CCc2cc(F)cc3c(=O)c(C(=O)O)cn1c23 (stereo not given) [Flumequine],0.019
8,COc1ccc(C[C@@H]2c3cc(OC)c(OC)cc3CC[N@+]2(C)CCC(=O)OCCCCCOC(=O)CC[N@@+]2(C)CCc3cc(OC)c(OC)cc3[C@H]2Cc2ccc(OC)c(OC)c2)cc1OC [Cisatracurium Besylate],-0.0983
9,C=CC(C)(C)c1cc(/C=C/C(=O)c2ccc(O)cc2)c(OC)cc1O [Licochalcone A],0.163
10,CN1[C@@H]2CC[C@H]1C[C@@H](OC(c1ccccc1)c1ccccc1)C2 [Benztropine mesylate],-0.93
11,CNC(=O)c1cc(Oc2ccc(NC(=O)Nc3ccc(Cl)c(C(F)(F)F)c3)cc2)ccn1 [Sorafenib Tosylate],0.716
12,CC1=C(C(=O)Nc2cc3cn[nH]c3cc2F)C(c2ccc(C(F)(F)F)cc2)CC(=O)N1 (stereo not given),0.229
13,NC(=S)N/N=C/c1ncccc1N [Triapine],-0.431
14,O=C(OCC(O)CO)c1ccccc1Nc1ccnc2cc(Cl)ccc12 (stereo not given) [Glafenine HCl],-0.5
15,Brc1c(NC2=NCCN2)ccc2nccnc12 [Brimonidine Tartrate],1.19
16,Nc1nc(NC2CC2)cc(-c2cccc(Cl)c2Cl)n1,1.61
17,O=C1C(=O)N(Cc2ccc(Cl)c(Cl)c2)c2ccccc21 [Apoptosis Activator 2],-0.0558
18,Cn1cc(-c2ccncc2)c(-c2ccc(OCc3ccc4ccccc4n3)cc2)n1,-0.128
19,O=C(CCCCCCC(=O)Nc1ccccc1)NO [Vorinostat (SAHA_ MK0683)],-1.22
20,O=S(=O)(N=Cc1c(O)ccc2ccccc12)c1cccs1,-0.571

# Source: the supplement of paper PMC11348887
